The target in the assay is ribosomal protein bL12 (L7/L12 stalk) from Psychrobacter urativorans (P. urativorans (endogenous in P. urativorans)). Description: cryo-EM structure; crude ribosomes isolated from ice-treated (cold shock) P. urativorans cells, buffer A (50 mM Tris-HCl pH 7.5, 20 mM magnesium acetate, 50 mM KCl); focused classification of Balon-bound 70S ribosomes; a 5 Å map of ribosomes from stationary-phase cells shows trace amounts of EF-Tu.

Protein sequences, listed by entry. Tags and fused reporters are not part of them.
UniProt A0A0M4U5B4: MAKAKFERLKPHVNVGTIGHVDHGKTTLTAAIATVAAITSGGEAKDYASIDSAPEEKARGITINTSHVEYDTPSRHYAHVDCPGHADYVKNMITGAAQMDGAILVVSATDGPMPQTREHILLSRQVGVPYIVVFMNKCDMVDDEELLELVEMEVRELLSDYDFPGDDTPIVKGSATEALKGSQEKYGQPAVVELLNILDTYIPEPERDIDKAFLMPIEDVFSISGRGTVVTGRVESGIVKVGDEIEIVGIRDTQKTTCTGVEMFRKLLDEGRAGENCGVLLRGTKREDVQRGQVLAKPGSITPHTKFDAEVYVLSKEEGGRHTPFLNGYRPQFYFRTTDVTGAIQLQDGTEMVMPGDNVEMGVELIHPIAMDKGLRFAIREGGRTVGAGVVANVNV

No constants are given. Whether binding was seen depends on the method and setting. Some binding calls cover weakened binding; strength is not graded here.

As for “elongation factor EF-Tu from Psychrobacter urativorans (from UniProt A0A0M4U5B4 1-396)”, the binding entry is “binds”.

These data come from article PMC10901736.
